Assay: general procedure: solution-phase peptide synthesis
Conditions: for step yield: late stage modification step; for conjugation yield: conjugation step

Substance: Oleanoyl-Lys-Thr-Thr-Lys-Ser-OH
- step yield: 85%

Substance: Acetylursolyl-Lys (Z)-Thr (Bzl)-Thr (Bzl)-Lys (Z)-Ser (Bzl)-OBzl
- conjugation yield: 80%

Substance: Acetyloleanoyl-Lys-Thr-Thr-Lys-Ser-OH
- step yield: 90%

Substance: Keto-β-boswellyl-Lys-Thr-Thr-Lys-Ser-OH
- step yield: 85%

Substance: Acetyloleanoyl Lys (Z)-Thr (Bzl)-Thr (Bzl)-Lys (Z)-Ser (Bzl)-OBzl
- conjugation yield: 80%

Substance: Acetyl-keto-β-boswellyl-Lys-Thr-Thr-Lys-Ser-OH
- step yield: 90%

Substance: Urosoyl-Lys-Thr-Thr-Lys-Ser-OH
- step yield: 85%

Substance: Acetylursolyl-Lys-Thr-Thr-Lys-Ser-OH
- step yield: 90%

Substance: 3-Acetyl-11-Keto-β-Boswellic acid-Lys (Z)-Thr (Bzl)-Thr (Bzl)-Lys (Z)-Ser (Bzl)-OBzl
- conjugation yield: 74%

Reference: patent publication US20140206842 (published 2014)
